Laboratory results reported in publication PMC5052235.
Results are given in words; binding and its absence hold for the method and conditions named. Binding can be weak; no strength is given.

Amino acid sequences for entries named in this document (tags omitted). A change or cut given only in a name is not applied to a line headed by its entry.
UniProt P21707: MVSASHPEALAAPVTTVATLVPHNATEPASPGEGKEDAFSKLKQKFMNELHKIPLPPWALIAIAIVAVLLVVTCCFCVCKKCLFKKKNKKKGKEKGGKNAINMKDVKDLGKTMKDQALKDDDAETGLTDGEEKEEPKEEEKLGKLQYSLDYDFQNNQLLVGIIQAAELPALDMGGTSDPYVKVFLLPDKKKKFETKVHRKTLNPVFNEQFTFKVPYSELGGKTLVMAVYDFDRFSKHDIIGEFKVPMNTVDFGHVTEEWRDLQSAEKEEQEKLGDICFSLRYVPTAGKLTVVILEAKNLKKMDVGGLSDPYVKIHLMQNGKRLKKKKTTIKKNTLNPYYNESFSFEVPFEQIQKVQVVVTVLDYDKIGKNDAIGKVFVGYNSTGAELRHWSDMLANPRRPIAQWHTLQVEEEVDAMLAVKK

Target: GST-Syt I-C2AB (the cytoplasmic C2 domains of synaptotagmin I) (UniProt P21707)
Assay: pull-down; Glutathione-Sepharose bead-bound GST-Syt I-C2AB as bait, incubated with recombinant Rab3A overnight at 4 °C in HNa buffer (10 mM Hepes-NaOH, 150 mM NaCl, pH 7.4) with 0.5 % Triton X-100; blot with the anti-Rab3A polyclonal antibody and anti-GST; both purified

binding: binds
B1: recombinant Rab3A protein (protein, UniProt P63012 1-220)
chain: MASATDSRYGQKESSDQNFDYMFKILIIGNSSVGKTSFLFRYADDSFTPAFVSTVGIDFKVKTIYRNDKRIKLQIWDTAGQERYRTITTAYYRGAMGFILMYDITNEESFNAVQDWSTQIKTYSWDNAQVLLVGNKCDMEDERVVSSERGRQLADHLGFEFFEASAKDNINVKQTFERLVDVICEKMSESLDTADPAVTGAKQGPQLTDQQAPPHQDCAC
